The values below come from publication PMC13498733.

Protein sequences, listed by entry. Tags and fused reporters are not part of them. Lines headed by an entry give the natural chain unless they say otherwise; changes in a name come on top.
UniProt P11260: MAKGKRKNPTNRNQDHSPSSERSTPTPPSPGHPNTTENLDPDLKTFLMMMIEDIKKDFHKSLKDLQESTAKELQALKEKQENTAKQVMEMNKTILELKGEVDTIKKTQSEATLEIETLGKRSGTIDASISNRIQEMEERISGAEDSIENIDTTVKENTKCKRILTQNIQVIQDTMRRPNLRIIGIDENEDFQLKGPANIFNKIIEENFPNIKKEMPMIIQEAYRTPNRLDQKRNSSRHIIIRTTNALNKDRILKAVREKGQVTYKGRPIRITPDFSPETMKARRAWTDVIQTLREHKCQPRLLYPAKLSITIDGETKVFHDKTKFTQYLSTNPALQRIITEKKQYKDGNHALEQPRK
UniProt O35344: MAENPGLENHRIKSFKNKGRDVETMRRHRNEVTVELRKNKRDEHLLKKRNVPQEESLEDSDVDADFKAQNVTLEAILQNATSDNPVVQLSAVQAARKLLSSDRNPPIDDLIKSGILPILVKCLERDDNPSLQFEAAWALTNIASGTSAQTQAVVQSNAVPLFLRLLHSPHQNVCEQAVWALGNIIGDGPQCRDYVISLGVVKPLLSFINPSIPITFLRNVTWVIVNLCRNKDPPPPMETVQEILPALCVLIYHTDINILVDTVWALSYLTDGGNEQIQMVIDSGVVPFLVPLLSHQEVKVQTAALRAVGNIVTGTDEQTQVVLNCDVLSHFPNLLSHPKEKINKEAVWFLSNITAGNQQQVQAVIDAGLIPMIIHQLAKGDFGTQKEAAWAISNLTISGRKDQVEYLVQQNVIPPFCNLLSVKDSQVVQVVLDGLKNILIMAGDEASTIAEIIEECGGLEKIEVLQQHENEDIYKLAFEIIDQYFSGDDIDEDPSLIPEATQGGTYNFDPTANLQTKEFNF
UniProt A2BH40: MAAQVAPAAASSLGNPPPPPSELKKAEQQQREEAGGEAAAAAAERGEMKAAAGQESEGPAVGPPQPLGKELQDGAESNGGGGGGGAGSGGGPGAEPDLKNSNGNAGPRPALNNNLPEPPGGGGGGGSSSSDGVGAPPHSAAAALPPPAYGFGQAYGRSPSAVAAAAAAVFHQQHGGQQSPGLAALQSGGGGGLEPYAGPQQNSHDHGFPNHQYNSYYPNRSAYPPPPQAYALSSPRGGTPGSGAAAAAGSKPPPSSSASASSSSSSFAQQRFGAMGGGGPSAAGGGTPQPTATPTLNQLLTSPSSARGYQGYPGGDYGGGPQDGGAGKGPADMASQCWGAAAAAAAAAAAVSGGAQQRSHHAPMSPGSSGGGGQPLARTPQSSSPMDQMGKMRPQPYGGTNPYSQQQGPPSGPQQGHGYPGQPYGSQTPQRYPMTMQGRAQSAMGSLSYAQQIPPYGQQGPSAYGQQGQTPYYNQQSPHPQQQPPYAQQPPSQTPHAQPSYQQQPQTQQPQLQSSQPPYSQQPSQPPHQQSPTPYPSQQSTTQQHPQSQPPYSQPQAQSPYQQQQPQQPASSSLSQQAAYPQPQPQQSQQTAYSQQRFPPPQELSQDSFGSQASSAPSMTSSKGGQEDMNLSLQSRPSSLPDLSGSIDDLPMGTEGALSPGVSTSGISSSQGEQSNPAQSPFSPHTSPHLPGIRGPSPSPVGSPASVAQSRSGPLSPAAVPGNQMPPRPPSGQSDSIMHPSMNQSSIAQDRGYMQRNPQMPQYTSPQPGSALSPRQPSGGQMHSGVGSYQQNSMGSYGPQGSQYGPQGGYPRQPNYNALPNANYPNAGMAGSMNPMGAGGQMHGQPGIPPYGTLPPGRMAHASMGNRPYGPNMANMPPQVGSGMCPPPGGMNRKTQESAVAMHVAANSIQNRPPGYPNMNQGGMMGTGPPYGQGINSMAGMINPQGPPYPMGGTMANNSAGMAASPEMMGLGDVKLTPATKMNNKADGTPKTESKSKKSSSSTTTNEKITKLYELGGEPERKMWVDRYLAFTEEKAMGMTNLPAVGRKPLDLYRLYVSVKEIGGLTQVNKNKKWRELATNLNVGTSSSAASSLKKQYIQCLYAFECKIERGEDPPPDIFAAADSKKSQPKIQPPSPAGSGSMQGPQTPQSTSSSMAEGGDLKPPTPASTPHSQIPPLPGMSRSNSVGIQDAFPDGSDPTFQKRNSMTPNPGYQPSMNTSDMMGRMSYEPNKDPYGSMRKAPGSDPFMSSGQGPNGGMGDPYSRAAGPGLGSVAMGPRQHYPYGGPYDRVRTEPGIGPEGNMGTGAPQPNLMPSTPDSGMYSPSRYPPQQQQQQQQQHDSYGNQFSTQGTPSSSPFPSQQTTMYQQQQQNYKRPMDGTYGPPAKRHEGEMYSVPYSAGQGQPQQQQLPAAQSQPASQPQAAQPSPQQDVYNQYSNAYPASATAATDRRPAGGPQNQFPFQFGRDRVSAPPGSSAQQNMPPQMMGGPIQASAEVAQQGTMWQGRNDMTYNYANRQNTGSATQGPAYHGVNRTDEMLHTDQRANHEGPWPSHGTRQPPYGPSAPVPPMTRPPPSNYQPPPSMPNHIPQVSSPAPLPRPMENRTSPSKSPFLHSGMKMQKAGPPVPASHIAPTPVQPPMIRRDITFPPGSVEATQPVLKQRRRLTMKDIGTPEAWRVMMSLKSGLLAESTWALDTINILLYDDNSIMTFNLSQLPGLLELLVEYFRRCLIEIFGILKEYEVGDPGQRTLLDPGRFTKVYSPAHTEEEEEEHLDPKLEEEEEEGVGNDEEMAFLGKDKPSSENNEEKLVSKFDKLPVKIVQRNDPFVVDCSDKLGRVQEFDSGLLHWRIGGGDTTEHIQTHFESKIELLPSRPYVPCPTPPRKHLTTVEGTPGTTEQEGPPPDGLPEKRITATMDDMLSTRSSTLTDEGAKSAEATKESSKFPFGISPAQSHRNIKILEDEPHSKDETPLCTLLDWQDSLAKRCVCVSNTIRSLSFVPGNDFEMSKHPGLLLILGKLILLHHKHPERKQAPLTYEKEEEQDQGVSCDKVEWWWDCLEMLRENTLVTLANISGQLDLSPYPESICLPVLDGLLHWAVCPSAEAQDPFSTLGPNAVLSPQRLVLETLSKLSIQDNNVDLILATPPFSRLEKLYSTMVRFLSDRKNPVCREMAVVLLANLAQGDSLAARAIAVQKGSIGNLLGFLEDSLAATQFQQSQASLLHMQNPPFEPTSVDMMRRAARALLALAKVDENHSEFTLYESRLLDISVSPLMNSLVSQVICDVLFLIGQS
UniProt Q61464: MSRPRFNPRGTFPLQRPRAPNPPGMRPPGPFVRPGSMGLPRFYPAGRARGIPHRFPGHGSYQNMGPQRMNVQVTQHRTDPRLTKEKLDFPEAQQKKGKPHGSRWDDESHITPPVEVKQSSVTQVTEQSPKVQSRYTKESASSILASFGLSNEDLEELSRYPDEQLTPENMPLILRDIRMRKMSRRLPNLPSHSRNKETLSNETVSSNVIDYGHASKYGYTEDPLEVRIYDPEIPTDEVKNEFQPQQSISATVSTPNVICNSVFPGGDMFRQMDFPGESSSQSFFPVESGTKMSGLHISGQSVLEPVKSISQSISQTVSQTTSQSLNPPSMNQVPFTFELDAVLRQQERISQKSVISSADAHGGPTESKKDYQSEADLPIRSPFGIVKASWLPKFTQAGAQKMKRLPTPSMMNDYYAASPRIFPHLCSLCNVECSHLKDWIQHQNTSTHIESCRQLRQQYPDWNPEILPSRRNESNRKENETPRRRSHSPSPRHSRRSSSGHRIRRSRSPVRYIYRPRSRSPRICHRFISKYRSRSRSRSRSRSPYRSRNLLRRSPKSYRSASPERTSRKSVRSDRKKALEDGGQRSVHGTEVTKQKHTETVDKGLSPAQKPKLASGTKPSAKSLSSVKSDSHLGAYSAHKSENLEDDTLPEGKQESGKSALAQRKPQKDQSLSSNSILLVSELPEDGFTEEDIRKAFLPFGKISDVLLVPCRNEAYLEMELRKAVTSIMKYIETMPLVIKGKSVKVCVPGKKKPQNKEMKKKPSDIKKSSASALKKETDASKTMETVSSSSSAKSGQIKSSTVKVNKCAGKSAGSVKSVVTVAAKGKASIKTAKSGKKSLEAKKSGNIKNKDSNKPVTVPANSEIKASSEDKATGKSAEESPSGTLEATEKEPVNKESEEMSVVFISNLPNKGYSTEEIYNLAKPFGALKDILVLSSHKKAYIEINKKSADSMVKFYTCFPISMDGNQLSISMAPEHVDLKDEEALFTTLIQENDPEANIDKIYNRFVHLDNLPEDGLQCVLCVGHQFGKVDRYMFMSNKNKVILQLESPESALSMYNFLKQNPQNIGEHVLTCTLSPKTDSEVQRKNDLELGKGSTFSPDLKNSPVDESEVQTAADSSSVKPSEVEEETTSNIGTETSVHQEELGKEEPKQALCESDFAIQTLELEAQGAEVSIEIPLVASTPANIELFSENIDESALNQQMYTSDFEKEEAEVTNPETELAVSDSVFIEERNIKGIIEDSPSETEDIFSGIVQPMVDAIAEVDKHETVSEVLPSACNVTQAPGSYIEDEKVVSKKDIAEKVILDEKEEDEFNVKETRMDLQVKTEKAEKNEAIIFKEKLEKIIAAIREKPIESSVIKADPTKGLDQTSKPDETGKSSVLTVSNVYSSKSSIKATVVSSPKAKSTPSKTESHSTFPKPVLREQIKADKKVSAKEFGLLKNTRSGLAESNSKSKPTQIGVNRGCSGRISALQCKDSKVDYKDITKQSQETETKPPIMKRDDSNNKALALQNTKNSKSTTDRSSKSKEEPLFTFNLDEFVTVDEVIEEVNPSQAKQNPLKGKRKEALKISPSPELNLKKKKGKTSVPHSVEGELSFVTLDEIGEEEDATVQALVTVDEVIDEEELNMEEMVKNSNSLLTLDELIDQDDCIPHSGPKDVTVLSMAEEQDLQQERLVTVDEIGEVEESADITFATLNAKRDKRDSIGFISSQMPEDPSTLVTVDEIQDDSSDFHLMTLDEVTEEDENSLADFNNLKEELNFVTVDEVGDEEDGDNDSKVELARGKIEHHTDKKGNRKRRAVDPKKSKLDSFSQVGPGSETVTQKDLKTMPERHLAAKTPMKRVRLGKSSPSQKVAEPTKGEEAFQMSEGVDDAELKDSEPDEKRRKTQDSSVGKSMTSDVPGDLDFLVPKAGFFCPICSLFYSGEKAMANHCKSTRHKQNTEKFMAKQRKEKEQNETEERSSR
UniProt Q6P6I6: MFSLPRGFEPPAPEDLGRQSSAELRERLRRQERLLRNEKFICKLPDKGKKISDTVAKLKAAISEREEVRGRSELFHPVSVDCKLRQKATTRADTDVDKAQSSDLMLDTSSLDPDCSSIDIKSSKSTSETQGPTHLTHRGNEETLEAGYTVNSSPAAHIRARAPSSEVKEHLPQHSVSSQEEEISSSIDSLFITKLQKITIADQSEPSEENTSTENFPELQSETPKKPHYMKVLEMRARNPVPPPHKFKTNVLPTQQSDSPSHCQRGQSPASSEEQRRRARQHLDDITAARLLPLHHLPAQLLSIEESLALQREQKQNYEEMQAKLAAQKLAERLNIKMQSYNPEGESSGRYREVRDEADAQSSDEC

These are yes or no findings as the source states them, for the method shown. In cells and extracts the contact can be indirect. These calls come from enrichment with a bait or labelling near it, and not all partners need be listed.

First the molecules themselves.
B1: RPAP2 (mouse) (protein, UniProt Q8VC34 1-614)
chain: MADSAVPCSLGPSTRASSTHRDATGTKQTRALKRGDASKRQAELEAAIQRKVEFERKAVRIVEQLLEENITEEFLKECGMFITPAHYSDVVDERSIIKLCGYPLCQKKLGVIPKQKYRISTKTNKVYDITERKSFCSNFCYRASKFFETQIPKTPVWVREEERPPDFQLLKKGQSGSSGEVVQFFRDAVTAADVDGSGALEAQCDPASSSSWSERASDEEEQGFVSSLLPGNRPKAVDTRPQPHTKSSIMRKKAAQNVDSKEGEQTVSEVTEQLDNCRLDSQEKVATCKRPLKKESTQISSPGPLCDRFNTSAISEHKHGVSQVTLVGISKKSAEHFRSKFAKSNPGSGSASGLVHVRPEVAKANLLRVLSDTLTEWKTEETLKFLYGQNHDSVCLKPSSASEPDEELDEDDISCDPGSCGPALSQAQNTLDATLPFRGSDTAIKPLPSYESLKKETEMLNLRVREFYRGRCVLNEDTTKSQDSKESVLQRDPSFPLIDSSSQNQIRRRIVLEKLSKVLPGLLGPLQITMGDIYTELKNLIQTFRLSNRNIIHKPVEWTLIAVVLLLLLTPILGIQKHSPKNVVFTQFIATLLTELHLKFEDLEKLTMIFRTSC
B2: UBAP2L (mouse) (protein, UniProt Q80X50 1-1107)
chain: MMTSVGTNRARGNWEQPQNQNQTQHKQRPQATAEQIRLAQMISDHNDADFEEKVKQLIDITGKNQDECVIALHDCNGDVNRAINVLLEGNPDTHSWEMVGKKKGVSGQKDGGQTESNEEGKENRDRDRDYSRRRGGPPRRGRGASRGREFRGQENGLDGTKSGGPSGRGTDRGRRGRGRGRGSSGRRGGRFSAQGMGTFNPADYAEPANTDDNYGNSSGNTWNNTGHFEPDDGTRLDFIGVEGSNYPRKFETAPGAWRTATEEWGTEDWNEDLSETKIFTASNVSSVPLPAENVTITAGQRIDLAVLLGKTPSSMENDSSNLDPSQAPSLAQPLVFSNSKQNAISQPASGSTFSHHSMVSMLGKGFGDVGEAKGGSTTGSQFLEQFKTAQALAQLAAQHSQSGSTTTSSWDMGSTTQSPSLVQYDLKSANDSTVHSPFTKRQAFTPSSTMMEVFLQEKPPAVATSTAAPPPPSSPLPSKSTSAPQMSPGSSDNQSSSPQPAQQKLKQQKKKTSLTSKIPALAVEMPGSADISGLNLQFGALQFGSEPVLSDYESTPTTSASSSQAPSSLYTSTASESSSTVSSNQSQESGYQSGPIQSTTYTSQNNAQGPLYEQRSTQTRRYPSSISSSPQKDLTQAKNGFSSVQATQLQTTQSVEGATGSAVKSESPSTSSIPSLNETVPAASLLTTANQHSSSLSGLSHTEEIPNTTTTQHSSALSTQQNTLSSSTSSGRTSTSTLLHTSVESEANLHSSSSTFSTTSSTVSAPPPVVSVSSSLNSGSSLGLSLGSNSTVTASTRSSVATTSGKAPPNLPPGVPPLLPNPYIMAPGLLHAYPPQVYGYDDLQMLQTRFPLDYYSIPFPTPTTPLTGRDGSLASNPYSGDLTKFGRGDASSPAPATTLAQPQQNQTQTHHTTQQTFLNPALPPGYSYTSLPYYTGVPGLPSTFQYGPAVFPVAPTSSKQHGVNVSVNASATPFQQPSGYGSHGYNTGVSVTSSNTGVPDISGSVYSKTQQSFEKQGFHSGTPAASFNLPSALGSGGPINPATAAAYPPAPFMHILTPHQQPHSQILHHHLQQDGQTGSGQRSQTSSIPQKPQTNKSAYNSYSWGAN
B3: NUP50 (mouse) (protein, UniProt Q9JIH2 1-466)
chain: MAKRVAEKELTDRNWDEEDEVEEMGTFSVASEEVMKNRAVKKAKRRNVGFESDSGGAFKGFKGLVVPSGGGGFSGFGGSGGKPLEGLTNGNSTDNATPFSNVKTAAEPKAAFGSFAVNGPTTLVDKKISSPKCNNSNQPPSSGPASSTACPGNAYHKQLAGLNCSVRDWIVKHVNTNPLCDLTPIFKDYERYLATIEKQLENGGGSSSESQTDRATAGMEPPSLFGSTKLQQESPFSFHGNKAEDTSEKVEFTAEKKSDAAQGATSASFSFGKKIESSALGSLSSGSLTGFSFSAGSSSLFGKDAAQSKAASSLFSAKASESPAGGGSSECRDGEEEENDEPPKVVVTEVKEEDAFYSKKCKLFYKKDNEFKEKGVGTLHLKPTATQKTQLLVRADTNLGNILLNVLIAPNMPCTRTGKNNVLIVCVPNPPLDEKQPTLPATMLIRVKTSEDADELHKILLEKKDA
B4: PRKRA (mouse) (protein, UniProt Q9WTX2 1-313)
chain: MSHSRHRAEAPPLQREDSGTFSLGKMITAKPGKTPIQVLHEYGMKTKNIPVYECERSDVQVHVPTFTFRVTVGDITCTGEGTSKKLAKHRAAEAAINILKANASICFAVPDPLMPDPSKQPKNQLNPIGSLQELAIHHGWRLPEYTLSQEGGPAHKREYTTICRLESFMETGKGASKKQAKRNAAEKFLAKFSNISPENHISLTNVVGHSLGCTWHSLRNSPGEKINLLKRSLLSLPNTDYIQLLSEIASEQGFNITYLDIEELSANGQYQCLAELSTSPITVCHGSGISCGNAQSDAAHNALQYLKIIAERK
B5: MLF2 (mouse) (protein, UniProt Q99KX1 1-247)
chain: MFRFMRDVEPEDPMFLMDPFAIHRQHMSRMLSGGFGYSPFLSITDGNMPATRPASRRMQAGAVSPFGMLGMSGGFMDMFGMMNDMIGNMEHMAAGGNCQTFSSSTVISYSNTGDGAPKVYQETSEMRSAPGGIRETRRTVRDSDSGLEQMSIGHHIRDRAHILQRSRNHRTGDQEERQDYINLDESEAAAFDDEWRRETSRYRQQRPLEFRRHEASVGGGRRAEGPPRLAIQGPEDSPSRQSRRYDW
B6: ATXN2 (mouse) (protein, UniProt O70305 1-1285)
chain: MRSSTAAVQRPAAGDPEPRRPAGWAARRSLPRTARRGGRGGAVAYPSAGPPPRGPGAPPRGPRSPPCASDCFGSNGHGASRPGSRRLLGVCGPPRPFVVVLLALAPAATPARACPPGVRASPPRSGVSSSARPAPGCPRPACEPVYGPLTMSLKPQPQPPAPATGRKPGGGLLSSPGAAPASAAVTSASVVPAPAAPVASSSAAAGGGRPGLGRGRNSSKGLPQPTISFDGIYANVRMVHILTSVVGSKCEVQVKNGGIYEGVFKTYSPKCDLVLDAAHEKSTESSSGPKREEIMESVLFKCSDFVVVQFKDTDSSYARRDAFTDSALSAKVNGEHKEKDLEPWDAGELTASEELELENDVSNGWDPNDMFRYNEENYGVVSTYDSSLSSYTVPLERDNSEEFLKREARANQLAEEIESSAQYKARVALENDDRSEEEKYTAVQRNCSDREGHGPNTRDNKYIPPGQRNREVLSWGSGRQSSPRMGQPGPGSMPSRAASHTSDFNPNAGSDQRVVNGGVPWPSPCPSHSSRPPSRYQSGPNSLPPRAATHTRPPSRPPSRPSRPPSHPSAHGSPAPVSTMPKRMSSEGPPRMSPKAQRHPRNHRVSAGRGSMSSGLEFVSHNPPSEAAAPPVARTSPAGGTWSSVVSGVPRLSPKTHRPRSPRQSSIGNSPSGPVLASPQAGIIPAEAVSMPVPAASPTPASPASNRALTPSIEAKDSRLQDQRQNSPAGSKENVKASETSPSFSKADNKGMSPVVSEHRKQIDDLKKFKNDFRLQPSSTSESMDQLLSKNREGEKSRDLIKDKTEASAKDSFIDSSSSSSNCTSGSSKTNSPSISPSMLSNAEHKRGPEVTSQGVQTSSPACKQEKDDREEKKDTTEQVRKSTLNPNAKEFNPRSFSQPKPSTTPTSPRPQAQPSPSMVGHQQPAPVYTQPVCFAPNMMYPVPVSPGVQPLYPIPMTPMPVNQAKTYRAGKVPNMPQQRQDQHHQSTMMHPASAAGPPIVATPPAYSTQYVAYSPQQFPNQPLVQHVPHYQSQHPHVYSPVIQGNARMMAPPAHAQPGLVSSSAAQFGAHEQTHAMYACPKLPYNKETSPSFYFAISTGSLAQQYAHPNAALHPHTPHPQPSATPTGQQQSQHGGSHPAPSPVQHHQHQAAQALHLASPQQQSAIYHAGLAPTPPSMTPASNTQSPQSSFPAAQQTVFTIHPSHVQPAYTTPPHMAHVPQAHVQSGMVPSHPTAHAPMMLMTTQPPGPKAALAQSALQPIPVSTTAHFPYMTHPSVQAHHQQQL
B7: GPHN (mouse) (protein, UniProt Q8BUV3 1-769)
chain: MATEGMILTNHDHQIRVGVLTVSDSCFRNLAEDRSGINLKDLVQDPSLLGGTISAYKIVPDEIEEIKETLIDWCDEKELNLILTTGGTGFAPRDVTPEATKEVIEREAPGMALAMLMGSLNVTPLGMLSRPVCGIRGKTLIINLPGSKKGSQECFQFILPALPHAIDLLRDAIVKVKEVHDELEDLPSPPPPLSPPPTTSPHKQTEDKGVQCEEEEEEKKDSGVASTEDSSSSHITAAALAAKIPDSIISRGVQVLPRDTASLSTTPSESPRAQATSRLSTASCPTPKQIRRPDESKGVASRVGSLKARLPSCSSTYSVSEVQSRCSSKENILRASHSAVDITKVARRHRMSPFPLTSMDKAFITVLEMTPVLGTEIINYRDGMGRVLAQDVYAKDNLPPFPASVKDGYAVRAADGPGDRFIIGESQAGEQPTQTVMPGQVMRVTTGAPIPCGADAVVQVEDTELIRESDDGTEELEVRILVQARPGQDIRPIGHDIKRGECVLAKGTHMGPSEIGLLATVGVTEVEVNKFPVVAVMSTGNELLNPEDDLLPGKIRDSNRSTLLATIQEHGYPTINLGIVGDNPDDLLNALNEGISRADVIITSGGVSMGEKDYLKQVLDIDLHAQIHFGRVFMKPGLPTTFATLDIDGVRKIIFALPGNPVSAVVTCNLFVVPALRKMQGILDPRPTIIKARLSCDVKLDPRPEYHRCILTWHHQEPLPWAQSTGNQMSSRLMSMRSANGLLMLPPKTEQYVELHKGEVVDVMVIGRL

This experiment concerns the target LINE-1 ORF1p (mouse) (mouse (endogenous in MN9D)) (UniProt P11260). The experiment in a line: affinity purification with mass spectrometry; IP of endogenous ORF1p with antibody-coupled Dynabeads from sonicated lysate of differentiated MN9D neurons (day 10), against rabbit IgG, n = 5 IPs; 10 mM Tris HCl pH 8, 150 mM NaCl, overnight 4°C; on-bead digest, LC-MS/MS (DIA), label-free quantification; ratio ≥2, P ≤0.05.
As to “KPNA3 (mouse) (from UniProt O35344 1-521)”, the binding entry is “binds”.
Then “ARID1A (mouse) (from UniProt A2BH40 1-2283)”, with “binds”.
Then “ZNF638 (mouse) (from UniProt Q61464 1-1960)”, with “binds”; and “MAP1B (mouse) (from UniProt P14873 1-2464)”, with “binds”.
Consider “POLR2M (mouse) (from UniProt Q6P6I6 1-366)”, for which the binding entry is reported as “binds”.
Regarding “HELZ (mouse) (from UniProt Q6DFV5 1-1964)”, the binding result is on record as “binds”.
In the case of B1, the binding result is “binds”.
As to B2, the binding result is given as “binds”.
Then B3, with “binds”.
As for B4, the binding result was “binds”.
Regarding B5, the binding entry was “binds”.
Turning to B6, the binding result was “binds”.
Then B7, with “binds”.
